Assay results as given in US8168667B2 (Galapagos NV, priority 2006, dated 2012).
For at least one compound, name, drawing or mass did not settle the structure.

Molecular target: T1, human androgen receptor (hAR) (Homo sapiens, UniProt P10275)
T1 sequence (P10275 1-920): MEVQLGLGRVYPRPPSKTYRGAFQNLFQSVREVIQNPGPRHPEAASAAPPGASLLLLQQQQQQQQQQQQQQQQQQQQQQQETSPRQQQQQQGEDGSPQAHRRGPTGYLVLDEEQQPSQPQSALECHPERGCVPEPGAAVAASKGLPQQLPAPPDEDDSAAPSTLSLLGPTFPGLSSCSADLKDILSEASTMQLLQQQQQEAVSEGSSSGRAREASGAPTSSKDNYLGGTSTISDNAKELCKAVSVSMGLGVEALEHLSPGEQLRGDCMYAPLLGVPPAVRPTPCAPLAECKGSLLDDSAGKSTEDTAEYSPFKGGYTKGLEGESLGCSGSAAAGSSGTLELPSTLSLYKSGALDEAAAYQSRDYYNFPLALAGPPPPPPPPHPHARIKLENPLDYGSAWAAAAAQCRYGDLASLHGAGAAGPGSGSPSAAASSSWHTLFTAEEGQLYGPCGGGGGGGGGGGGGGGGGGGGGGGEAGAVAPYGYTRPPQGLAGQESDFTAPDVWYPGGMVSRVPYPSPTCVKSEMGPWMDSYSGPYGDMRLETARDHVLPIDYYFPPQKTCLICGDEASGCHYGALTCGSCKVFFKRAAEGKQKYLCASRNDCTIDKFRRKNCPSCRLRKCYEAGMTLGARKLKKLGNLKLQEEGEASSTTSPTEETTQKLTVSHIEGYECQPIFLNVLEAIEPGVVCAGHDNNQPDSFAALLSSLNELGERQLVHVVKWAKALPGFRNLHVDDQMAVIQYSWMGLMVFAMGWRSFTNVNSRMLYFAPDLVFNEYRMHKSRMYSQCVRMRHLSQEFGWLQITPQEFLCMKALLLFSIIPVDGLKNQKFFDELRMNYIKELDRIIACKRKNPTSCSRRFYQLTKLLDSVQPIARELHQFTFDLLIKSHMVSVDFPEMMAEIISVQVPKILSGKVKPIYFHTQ
Assay: Functional response test: hAR transactivation (luciferase reporter) in HALP2 cells
Format: cell-based
Conditions: antagonism, concentration which increases the EC50 of the DHT by a factor of 2, Schild regression
From the text: This test constitutes a method of identifying pure or partial agonists which mimic the effects of natural hormones, such as DHT (dihydrotestosterone) in the present case or, on the other hand, antagonists which inhibit them.
For this transactivation test, plasmids encoding a reporter gene and the human androgen receptor (hAR) are introduced together by transfection into the HeLa cell line. The reporter plasmid contains luciferase cDNA under the control of the AREs contained in the promoter sequences of the probasin gene (3xpbAREminicoll-luciferase/pGL3-puro). The expression of the reporter gene constitutes an indication of the transcriptional activity of hAR. It also encodes a protein allowing the cells expressing it to resist a treatment with puromycin. The plasmid encoding hAR contains the cDNA of hAR under the control of the Cytomegalovirus (CMV) promoter. It also encodes a protein allowing the cells expressing it to resist a treatment with neomycin. The treatment of cells with increasing amounts of potentially agonistic compounds will increase the expression of the reporter gene. To detect antagonists, on the other hand, increasing doses of test compounds are tested in the presence of […] of DHT. The expression of the reporter gene, which is constant for each dose of DHT, decreases when the concentration of the test compounds increases. […]

C=CCOCC1(c2ccc(OC)cc2)C(=O)N(c2ccc(Cl)c(Cl)c2)C(=O)N1C (stereo not shown) [Example 171, 1-(3,4-dichlorophenyl)-4-(4-methoxyphenyl)-3-methyl-4-[(2-propenyloxy)methyl]-imidazolidine-2,5-dione]
KSchild (nM) potency: 600 nM
